Measured values from PubChem BioAssay AID2685 (National Center for Advancing Translational Sciences (NCATS), 2010).
Screen size: about 320,000 compounds; about 2,100 (0.66%) were called active. Inconclusive means that the source gave no clear call. Such entries were picked first, then a sample of the others. Calls come from the whole dose curve; as a rule, active = well fitted inhibition curve with a large enough effect in the signal ratio, with a control signal flat (not every such curve was filed as active); inconclusive = small, poorly fitted or top-dose-only effect, or effect the other way, or a change in a side signal; inactive = flat fitted curve, though single readings scatter; the % refers to the signal ratio. Potencies beside an inconclusive call are fits to weak or partial responses and may not hold up.

test: qHTS Assay for Lipid Storage Modulators in Drosophila S3 Cells; conditions: BODIPY lipid droplet fluorescence, 18-24 h, cells fed with added oleic acid; lipid storage change, negative = inhibition: at 46.1 µM (top of the series) unless noted
How it was run: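 Laser-scanning cytometry quantifies lipid droplet accumulation (500–530 nm total intensity; droplet/cell object ratio) in oleic acid-fed (400 uM added) Drosophila S3 cells treated with a concentration series. 20 uM Triacsin C defined 100% inhibition.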
% is set by controls: 0 for no effect and ±100 for the full control effect; potency is the fitted concentration of half-maximal effect.

Question: Which Potency does the source give for `Cc1ccc(S(=O)(=O)NCC(=O)Nc2ccc3c(c2)OCO3)cc1` here?
Answer: inconclusive: 6.51 µM [activator, single point]

Question: With `Cc1ccc2nc(SCC(=O)Nc3cccnc3Cl)[nH]c2c1` as the compound, how does the Potency read?
Answer: inconclusive: 32.6 µM [activator, single point]

Question: With `CC(C)CNC(=O)C(=O)NCC1CCCN1S(=O)(=O)c1cccs1` (centres undefined) as the compound, how does the lipid storage change, negative = inhibition read?
Answer: inconclusive

Question: Which Potency does the source give for `CNc1c(C(=O)O)ccc2c1C(=O)c1ccccc1C2=O` here?
Answer: inconclusive: 3.26 µM [activator, full curve, poor fit]

Question: With `COC(=O)c1c(NC(=O)COC(=O)c2ccccn2)sc(C)c1C` as the compound, how does the lipid storage change, negative = inhibition read?
Answer: inconclusive: 5.42%

Question: Which lipid storage change, negative = inhibition does the source give for `CCOC(=O)N1CCN(S(=O)(=O)c2ccc(C(=O)N(CCCN(C)C)c3nc4c(F)cc(F)cc4s3)cc2)CC1` here?
Answer: inconclusive: -0.0685% [at 0.0737 µM]

Question: With `CC1CCCN(C(=O)c2ccc3ncsc3c2)C1` (centres undefined) as the compound, how does the lipid storage change, negative = inhibition read?
Answer: inconclusive

Question: With `COC(=O)c1ccc(NC(=O)c2ccc3c(c2)C(=O)N(C)C3=O)cc1` as the compound, how does the lipid storage change, negative = inhibition read?
Answer: inconclusive: 27.7%

Question: For `CCn1c(CC(=O)Nc2ccc(F)cc2)nnc1SCC(=O)N1CCOCC1`, which lipid storage change, negative = inhibition is on record?
Answer: inconclusive: -27.8%

Question: With `COc1ccc(-c2nc3ccc(N4CCN(C)CC4)cc3c(=O)[nH]2)cc1` as the compound, how does the lipid storage change, negative = inhibition read?
Answer: inconclusive: 21.5% [at 9.22 µM]

Question: Which lipid storage change, negative = inhibition does the source give for `Cc1nc(SCCOc2ccccc2)[nH]c(=O)c1Cc1ccccc1` here?
Answer: inconclusive: -20.4%

Question: Which lipid storage change, negative = inhibition does the source give for `O=C(N/N=C/c1ccccn1)c1cc([N+](=O)[O-])cc([N+](=O)[O-])c1` here?
Answer: inconclusive: 0.522%

Question: Which lipid storage change, negative = inhibition does the source give for `Cc1nnc(N)s1` here?
Answer: inconclusive: -65.7%

Question: Which Potency does the source give for `CCCCCOc1ccc(OC(=O)c2ccncc2)cc1` here?
Answer: inconclusive: 25.9 µM [falling, single point]

Question: For `Cc1ccc(C(=O)Nc2nnc(-c3ccco3)o2)cc1`, which lipid storage change, negative = inhibition is on record?
Answer: inconclusive: -42.9%

Question: Which lipid storage change, negative = inhibition does the source give for `O=C(c1c[nH]c2ccc(S(=O)(=O)N3CCOCC3)cc2c1=O)N1CCN(c2ccccn2)CC1` here?
Answer: inconclusive: 6.12%

Question: Which Potency does the source give for `O=C(CCc1nc2sc3c(c2c(=O)[nH]1)CCCC3)NCC(=O)Nc1ccccc1Br` here?
Answer: inconclusive: 0.082 µM [activator, partial curve]

Question: Which lipid storage change, negative = inhibition does the source give for `COc1ccccc1C(=O)NCCC(=O)NNC(=O)C1COc2ccccc2O1` (centres undefined) here?
Answer: inconclusive

Question: With `Cc1cnc([N+](=O)[O-])n1CCOC(=O)NC(=O)c1ccccc1` as the compound, how does the lipid storage change, negative = inhibition read?
Answer: inconclusive: 8.37%

Question: With `CCCn1c(N)c(C(=O)CSc2nnc(-c3cccnc3)n2-c2ccc(C)cc2C)c(=O)[nH]c1=O` as the compound, how does the lipid storage change, negative = inhibition read?
Answer: inconclusive: 10.5%

Question: For `COc1ccc2[nH]c3c(=O)n(Cc4ccc(C(=O)NCC5CCCO5)cc4)c(=S)[nH]c3c2c1` (centres undefined), which lipid storage change, negative = inhibition is on record?
Answer: inconclusive: 43.6%

Question: For `Nc1nonc1-c1nc2ccccc2[nH]1`, which lipid storage change, negative = inhibition is on record?
Answer: inconclusive: 2.18%

Question: For `COc1ccc(N2CCN(C(=S)Nc3cccc(OC)c3)CC2)cc1`, which Potency is on record?
Answer: inconclusive: 0.82 µM [falling, full curve, poor fit]

Question: Which lipid storage change, negative = inhibition does the source give for `Cc1ccc(NC(=O)C(C)SCc2nc3sc4c(c3c(=O)[nH]2)CCCC4)nc1` (centres undefined) here?
Answer: inconclusive: 9.43%

Question: Which lipid storage change, negative = inhibition does the source give for `O=C1C(Cc2ccccc2)Nc2ncnc(N3CCN(c4ccccc4)CC3)c2N1Cc1ccc(Cl)cc1` (centres undefined) here?
Answer: inconclusive: 29.1%

Question: Which Potency does the source give for `O=C(NC1CCCC1)C(c1ccncc1)N(C(=O)c1ccco1)c1ccc(Cl)cc1` (centres undefined) here?
Answer: inconclusive: 0.231 µM [falling, full curve]

Question: For `CN(C(=O)c1ccccc1-c1ccccc1C(=O)O)c1ccccc1`, which lipid storage change, negative = inhibition is on record?
Answer: inconclusive: -0.142%

Question: Which Potency does the source give for `COc1ccc(C(CNC(=O)c2[nH]c(C)c(C(C)=O)c2C)N2CCOCC2)cc1` (centres undefined) here?
Answer: inconclusive: 29.1 µM [activator, single point]

Question: For `O=C(NC1CCOc2ccccc21)c1ccccn1` (centres undefined), which lipid storage change, negative = inhibition is on record?
Answer: inconclusive: -44.7%

Question: Which lipid storage change, negative = inhibition does the source give for `CCS(=O)(=O)N1CCC(C(=O)NCc2ccccc2OC)CC1` here?
Answer: inconclusive: 46.7%

Question: For `CC(C)CC1Nc2ncnc(N3CCN(c4ccccc4)CC3)c2N(Cc2ccccc2)C1=O` (centres undefined), which lipid storage change, negative = inhibition is on record?
Answer: inconclusive: 21.5%

Question: With `CCCOc1ccc(C(=O)CCCC(=O)c2ccc(OCCC)cc2)cc1` as the compound, how does the Potency read?
Answer: inconclusive: 25.9 µM [activator, partial curve]

Question: With `C/C(=N\Nc1nc(N)cc(Cl)n1)c1cccc(N)c1` as the compound, how does the lipid storage change, negative = inhibition read?
Answer: inconclusive: -28.5%

Question: For `CSc1ccc(/C=N/Nc2cccc(C(=O)O)c2)cc1`, which lipid storage change, negative = inhibition is on record?
Answer: inconclusive: 18.8%

Question: Which lipid storage change, negative = inhibition does the source give for `COC(=O)C(C)Sc1nnc(Cc2cc(=O)[nH]c(=O)[nH]2)n1-c1ccc(OC)cc1` (centres undefined) here?
Answer: inconclusive: -32.4%

Question: With `COc1ccc2nc(C)cc(N/N=C/c3ccccc3)c2c1` as the compound, how does the lipid storage change, negative = inhibition read?
Answer: inconclusive: 20.2%

Question: With `NCC(O)(c1ccc(Cl)cc1)c1ccc(Cl)cc1` as the compound, how does the lipid storage change, negative = inhibition read?
Answer: inconclusive: -20.9%

Question: Which Potency does the source give for `COc1ccc(NC(=O)CC(C)c2ccccc2)c([N+](=O)[O-])c1` (centres undefined) here?
Answer: inconclusive: 6.51 µM [activator, partial curve]

Question: Which lipid storage change, negative = inhibition does the source give for `O=C(CSc1nc(=O)n2ccccc2n1)NCc1ccccc1` here?
Answer: inconclusive

Question: For `O=S(=O)(c1ccccc1)N(Cc1ccccn1)Cc1ccccn1`, which Potency is on record?
Answer: inconclusive: 29.1 µM [falling, single point]

Question: For `Cc1c(NS(=O)(=O)c2ccc(N3CCN(C)CC3)c([N+](=O)[O-])c2)c(=O)n(-c2ccccc2)n1C`, which Potency is on record?
Answer: inconclusive: 3.26 µM [cytotoxic, partial curve]

Question: For `O=C(Cc1ccccc1)N1CCN(c2ncccn2)CC1`, which lipid storage change, negative = inhibition is on record?
Answer: inconclusive: -0.294%

Question: With `OCC1(Cc2ccccc2)CCCN(Cc2ccn[nH]2)C1` (centres undefined) as the compound, how does the lipid storage change, negative = inhibition read?
Answer: inconclusive: 36.7%

Question: For `O=c1oc(-c2ccco2)nc2c1cnn2-c1ccccc1`, which Potency is on record?
Answer: inconclusive: 0.58 µM [rising, single point]

Question: With `COc1cccc(NC(=O)COC(=O)c2c(C)nn(-c3ccccc3)c2C)c1` as the compound, how does the lipid storage change, negative = inhibition read?
Answer: inconclusive: 9.16%

Question: For `COc1cc(C(=O)OCC(=O)NC2CCCCC2)cc2c1OCCO2`, which Potency is on record?
Answer: inconclusive: 20.6 µM [activator, single point]

Question: For `CNC(=O)c1cn(-c2ccc(Cl)cc2)c(=O)c2ccccc12`, which Potency is on record?
Answer: inconclusive: 0.164 µM [cytotoxic, full curve]

Question: Which Potency does the source give for `COC(=O)[C@H]1C2CCC(C(=O)OC)(CC2)[C@H]1C(=O)OC` here?
Answer: active: 1.3 µM

Question: For `COc1cccc(NC(=O)C2CC(=O)N(C)C(=Nc3cccc(F)c3)S2)c1` (centres undefined), which lipid storage change, negative = inhibition is on record?
Answer: inconclusive: 34.2%

Question: Which lipid storage change, negative = inhibition does the source give for `CCOC(=O)c1c(NC(=O)CSc2ncn[nH]2)sc(C(C)=O)c1C` here?
Answer: inconclusive: -9.19%

Question: With `O=C(NCc1cc(C(F)(F)F)cc(C(F)(F)F)c1)C1CC(c2ccccc2C(F)(F)F)=NO1` (centres undefined) as the compound, how does the Potency read?
Answer: inconclusive: 29.1 µM [falling, partial curve, poor fit]

Question: Which lipid storage change, negative = inhibition does the source give for `O=C(/C=C/c1ccccc1Cl)N(Cc1cccs1)C1CCS(=O)(=O)C1` (centres undefined) here?
Answer: inconclusive: -4.76%

Question: With `CCOc1ccc(NC(=O)COc2ccc(C(=O)N3CCC(C(N)=O)CC3)cc2OC)cc1` as the compound, how does the lipid storage change, negative = inhibition read?
Answer: inconclusive: 6.62%

Question: Which lipid storage change, negative = inhibition does the source give for `CC(=O)NCCC(=O)Nc1nc2ccc(Oc3ccccc3)cc2s1` here?
Answer: inconclusive: -100%

Question: For `Cc1cc(C)cc(C(=O)Oc2coc(CSc3nnc(NC(=O)C4CC4)s3)cc2=O)c1`, which lipid storage change, negative = inhibition is on record?
Answer: inconclusive: 2.33%

Question: With `COc1cccc(OCC(=O)Nc2cc(NC(=O)COc3cccc(OC)c3)cc(C(=O)O)c2)c1` as the compound, how does the Potency read?
Answer: inconclusive: 4.61 µM [activator, single point]

Question: For `COc1ccc(CCN2C(=O)N(c3ccc(OC)cc3)C(=O)C2CC(=O)Nc2ccc(OC)cc2)cc1` (centres undefined), which lipid storage change, negative = inhibition is on record?
Answer: inconclusive: 17.6%

Question: Which lipid storage change, negative = inhibition does the source give for `CCN(CC)C(=O)CSc1nc2c(sc(=S)n2-c2ccccc2)c(=O)n1-c1ccc(OC)cc1OC` here?
Answer: inconclusive: 35.2%

Question: With `O=C(CSc1ccc2nnc(-c3ccncc3)n2n1)NCc1ccco1` as the compound, how does the Potency read?
Answer: inconclusive: 4.61 µM [activator, single point]

Question: With `CSc1ncc(Cl)c(C(=O)Nc2ccc(S(=O)(=O)N3CCOCC3)cc2)n1` as the compound, how does the Potency read?
Answer: inconclusive: 0.206 µM [activator, full curve, poor fit]

Question: Which lipid storage change, negative = inhibition does the source give for `CCOC(=O)c1sc(C)c(C(N)=O)c1NC1=NCCCCC1` here?
Answer: inconclusive: 18.2%

Question: Which lipid storage change, negative = inhibition does the source give for `O=C(NC(C1CC1)C1CC1)C1CCC(=O)N(CCCN2CCCC2=O)C1` (centres undefined) here?
Answer: inconclusive: 205%

Question: For `Cc1ccc(-c2cc(C(=O)Nc3nn[nH]n3)c3ccccc3n2)cc1`, which lipid storage change, negative = inhibition is on record?
Answer: inconclusive: -3.41%

Question: With `CC1(C)OC(=O)C(=CNCC(O)c2ccccc2)C(=O)O1` (centres undefined) as the compound, how does the Potency read?
Answer: inconclusive: 29.1 µM [rising, single point]

Question: Which Potency does the source give for `N#CCSc1nnc(-c2c[nH]c3ccccc23)o1` here?
Answer: inconclusive: 4.61 µM [activator, partial curve]

Question: With `CCN(CC)CCNC(=O)c1ccc(NC(=O)Cc2ccsc2)cc1` as the compound, how does the Potency read?
Answer: inconclusive: 32.6 µM [activator, single point]

Question: Which Potency does the source give for `Cc1ccc(-n2c(CNc3ccc(F)cc3)nnc2SCC(N)=O)cc1` here?
Answer: inconclusive: 10.3 µM [falling, partial curve, poor fit]

Question: Which lipid storage change, negative = inhibition does the source give for `COC(=O)c1sccc1NC(=O)c1ccccc1F` here?
Answer: inconclusive: 22%

Question: With `COc1ccc(CC(=O)NCc2nnc(SCC(=O)Nc3ccc(OC)cc3)n2C)cc1` as the compound, how does the Potency read?
Answer: inconclusive: 0.092 µM [falling, partial curve, poor fit]

Question: Which lipid storage change, negative = inhibition does the source give for `Cc1ccccc1CC(=O)N1CCN(C(=O)c2ccco2)CC1` here?
Answer: inconclusive: -3.99%

Question: Which lipid storage change, negative = inhibition does the source give for `COc1ccc(-n2ncc3c(N4CCN(Cc5ccccc5)CC4)ncnc32)cc1` here?
Answer: inconclusive: 36.2%

Question: For `COc1cc(C2CC(=O)Oc3c(C(CCN4CCCC(C)C4)c4ccc(N(C)C)cc4)c(OC)cc(OC)c32)cc(OC)c1OC` (centres undefined), which lipid storage change, negative = inhibition is on record?
Answer: inconclusive: 15.6%

Question: With `CCOC(=O)N1CCC(N(CCOC)C(=O)Nc2ccc(Cl)cc2)CC1` as the compound, how does the Potency read?
Answer: inconclusive: 29.1 µM [activator, single point]

Question: With `CCOc1ccc(C(=O)NCCC2=CCCCC2)cc1OCC` as the compound, how does the lipid storage change, negative = inhibition read?
Answer: inconclusive: -22% [at 9.22 µM]
